Assay results published in article PMC4178060, “Recombinant p35 from Bacteria Can Form Interleukin (IL-)12, but Not IL-35” (PLoS ONE, 2014).
These are yes or no findings as the source states them, for the method shown. For part of these data: Binding seen in cells or lysates may run through a third protein. Some binding calls cover weakened binding; strength is not graded here. Where a sequence is shown, tags or fusion partners need not be part of it. Blank lines part the entries; values can stand above or below the binder they belong to.

What was measured:
[1] = target: T1, Fc-tagged EBI3 (murine EBI3) (mouse), O35228; test: pull-down; lysates of separately transfected cells mixed and incubated overnight at 4°C; EBI3-Fc precipitated with Protein-A-agarose beads via the Fc tag; immunoprecipitation buffer 20 mM Tris pH 7.5, 150 mM NaCl, 1% Triton X-100; Western blot against flag- and Fc-tag; details: remark: other sources report otherwise
T1 chain: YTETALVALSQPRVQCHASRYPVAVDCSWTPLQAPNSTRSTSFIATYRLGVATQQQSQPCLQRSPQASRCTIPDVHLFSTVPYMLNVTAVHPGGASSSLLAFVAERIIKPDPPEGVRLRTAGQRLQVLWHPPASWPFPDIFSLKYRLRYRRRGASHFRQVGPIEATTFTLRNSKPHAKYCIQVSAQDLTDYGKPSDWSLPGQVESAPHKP

[2] = target: T2, Fc-tagged EBI3 (murine EBI3) (mouse) (UniProt O35228); test: as above
T2 sequence: T1 chain

[3] = target: T3, p40_(C197A) (murine p40, flag-tagged) (mouse) (UniProt P43432); test: non-reducing SDS-PAGE with Western blot; 20 µl conditioned supernatant of transiently transfected HEK293 cells separated by SDS-PAGE under non-reducing conditions; flag-specific antibody; disulfide-linked dimer
T3 sequence: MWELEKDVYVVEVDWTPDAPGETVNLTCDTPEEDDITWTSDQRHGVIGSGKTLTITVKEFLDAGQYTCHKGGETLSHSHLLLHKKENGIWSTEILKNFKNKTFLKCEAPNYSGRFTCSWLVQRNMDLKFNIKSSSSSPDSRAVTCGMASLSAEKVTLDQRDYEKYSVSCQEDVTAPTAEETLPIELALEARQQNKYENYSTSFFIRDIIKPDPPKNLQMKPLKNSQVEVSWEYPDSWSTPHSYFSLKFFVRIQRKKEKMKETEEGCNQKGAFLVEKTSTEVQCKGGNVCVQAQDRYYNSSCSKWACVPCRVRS

binding [1]: no binding
B1: flag-tagged p19 (murine p19), Q9EQ14 22-196 (protein)
chain: VPRSSSPDWAQCQQLSRNLCMLAWNAHAPAGHMNLLREEEDEETKNNVPRIQCEDGCDPQGLKDNSQFCLQRIRQGLAFYKHLLDSDIFKGEPALLPDSPMEQLHTSLLGLSQLLQPEDHPRETQQMPSLSSSQQWQRPLLRSKILRSLQAFLAIAARVFAHGAATLTEPLVPTA

binding [2]: binds
B2: flag-tagged p35 (murine p35) (protein, UniProt P43431 23-215)
chain: RVIPVSGPARCLSQSRNLLKTTDDMVKTAREKLKHYSCTAEDIDHEDITRDQTSTLKTCLPLELHKNESCLATRETSSTTRGSCLPPQKTSLMMTLCLGSIYEDLKMYQTEFQAINAALQNHNHQQIILDKGMLVAIDELMQSLNHNGETLRQKPPVGEADPYRVKMKLCILLHAFSTRVVTINRVMGYLSSA

binding [3]: no binding
B3: p40_(C197A) (murine p40, flag-tagged) (protein, UniProt P43432 23-335)
chain: T3 sequence
